The nature of one data set: water solubility. To be noted: room temperature. The data set is classed as physicochemical.
Data set [1] can be described thus: log P value (octanol:water). The data set is classed as physicochemical. The settings on record: water/n-octanol. An excerpt:
The partition coefficient (P) is the ratio of concentrations of a compound in a mixture of two immiscible solvents at equilibrium. This ratio is therefore a comparison of the solubility of the solute in these two liquids. In the chemical and pharmaceutical sciences, both phases usually are solvents. Most commonly, one of the solvents is water, while the second is hydrophobic such as 1-octanol.
Log P=log 10(Partition Coefficient)
Partition Coefficient,P=[organic]/[aqueous]

By log P is commonly meant the decadic logarithm of the partition coefficient of the neutral form, usually between octanol and water. Turning to `CCCCCCCC1CCC(=O)O1` (centres unmarked) [ALDEHYD C14 SOG], the Water solubility in the data set “water solubility” was found to be 99 µg/mL. Also, the “log P” value in data set [1] was 3.06.

(Values after patent publication US20220387268A1, “OIL-IN-WATER MACROEMULSION” (SYMRISE AG, priority 2019, published 2022).)
